Measured values as given in PubChem BioAssay AID602254 (Broad Institute, 2012).
The whole screen tested about 1,000 compounds, of which fewer than 10 were called active.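 The calls were made as follows: active = fitted half-maximal concentration no higher than twice the top valid tested dose, with signal falling; inconclusive = flat curve with 30 to 70% inhibition, or poor fit; inactive = the rest.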 Some of the results follow. Entries with a potency or affinity are not part of this list.

Each compound was assayed against Golgi-associated PDZ and coiled-coil motif-containing protein (Homo sapiens) (UniProt Q9HD26) (assay: CAL PDZ domain peptide-binding inhibitors, dose response, biochemical, fluorescence polarization, untagged CAL PDZ, cherry-pick, set 2 (AID 602254;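 also: 0% = DMSO neutral control and -100% = unlabeled peptide PRC23 positive control; more negative means stronger blocking of peptide binding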)). Details: Purified CAL PDZ, TMR peptide fluorescence polarization; at 60 µM (top of the series).

Activity change, negative = inhibition, inactive:
O=S(=O)(c1ccccc1)N(CC(O)COc1ccccc1)c1ccccc1 (stereo unspecified) 0.464%
N#CCNC(=O)c1nn2c(C(F)(F)F)cc(-c3ccccc3)nc2c1Br 0.777%
CCOC(=O)c1ccc(NC(=O)c2ccc(NC(=O)C3CCCO3)cc2)cc1 (stereo unspecified) 1.45%
Cc1ccc(-c2nn(C)c(=O)c3ccccc23)cc1CN1CCCCC1 1.08%
CC1Cc2ccccc2N1C(=O)COC(=O)c1cccc(Br)c1 (stereo unspecified) -1.16%
CCC(C)(C(=O)NC1CCCCC1)N(C)C(=O)c1ccccn1 (stereo unspecified) 0.953%
COc1ccc(Nc2ncnc3sc(-c4ccccc4)cc23)c(OC)c1 0.882%
CCOc1ncccc1C(=O)OCC(=O)N(CC(C)C)C1CCS(=O)(=O)C1 (stereo unspecified) 0.111%
Cc1cc(N2CCN(c3ccccc3)CC2)nc2ccccc12 -0.474%
CC1CN(C(=S)Nc2ccccc2)N(c2ccccc2)C1 (stereo unspecified) 2.31%
COCCCNC(=S)N/N=C/c1ccc(OC)c(Br)c1 -1.02%
CC(C)(C(=O)Nc1nccs1)c1ccccc1 0.362%
CC(C)c1cc(C(=O)N2CCCC(N3CCN(c4ccc(F)cc4)CC3)C2)no1 (stereo unspecified) -2.37%
COc1ccc(CCNC(=O)c2cc3c(F)cccc3s2)cc1OC 3.5%
COc1cc(C(=O)NCC2CCCCC2)cc(OC)c1OC -1.25%
CCN(Cc1ccc(N(C)C)cc1)C(C)C(=O)Nc1ccc(S(=O)(=O)N2CCCC2)cc1 (stereo unspecified) -11.2%
COc1ccc(CN2C(=O)c3cccnc3C2=O)cc1S(=O)(=O)N(C)c1cccc(C)c1 -0.429%
CN1CCC(OC(=O)COc2ccc(F)cc2)CC1 -12.9%
Cc1cccc(NC(=O)c2ccccc2SCc2ccc(F)cc2)n1 1.74%
CCOc1ccc(NC(=O)CCN2CCN(S(=O)(=O)c3ccc(F)cc3)CC2)cc1 -0.08%
Fc1ccc(Cn2nnc3ccccc32)cc1 1.58%
COc1ccc2[nH]c(=O)c(CN(C(=O)C3CCCO3)c3ccc(C)c(C)c3)cc2c1 (stereo unspecified) 1.97%
CCC1CCC2(CC1)NC(=O)N(CC(=O)Nc1ccc(OC)c(Cl)c1)C2=O (stereo unspecified) -11%
CCC(C)NC(=S)Nc1ccccc1 (stereo unspecified) 1.51%
Cc1ccc(OCC(=O)Nc2ccc(C(=O)O)cc2NC(=O)COc2ccc(C)c(C)c2)cc1C 3.68%
O=C(C1CC(=O)N(c2ccc3c(c2)OCCO3)C1)N1CCN(S(=O)(=O)c2ccc(F)cc2)CC1 (stereo unspecified) -2.13%

For reference, part of the list above.
Activity change, negative = inhibition, inactive:
CCC(C)NC(=S)Nc1ccccc1 (stereo unspecified) 1.51%
Cc1ccc(OCC(=O)Nc2ccc(C(=O)O)cc2NC(=O)COc2ccc(C)c(C)c2)cc1C 3.68%
